The results in this text go back to publication PMC6133972.

By UniProt entry, the sequences of proteins in these tests, tags left out. Where a name states a change or a piece, a line headed by the entry shows the natural chain unless it says otherwise.
UniProt P25445: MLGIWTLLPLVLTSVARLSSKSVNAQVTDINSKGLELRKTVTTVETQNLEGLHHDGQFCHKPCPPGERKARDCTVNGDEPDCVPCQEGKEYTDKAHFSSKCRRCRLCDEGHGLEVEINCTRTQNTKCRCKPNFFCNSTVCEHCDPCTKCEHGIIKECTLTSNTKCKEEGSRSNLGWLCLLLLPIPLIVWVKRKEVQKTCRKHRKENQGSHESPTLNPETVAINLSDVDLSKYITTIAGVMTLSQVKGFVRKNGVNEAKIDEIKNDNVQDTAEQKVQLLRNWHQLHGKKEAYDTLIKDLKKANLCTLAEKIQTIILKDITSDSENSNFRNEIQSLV

For the test, the target named is T1, human wild-type CERS6 tagged with mycDDK at COOH terminus (human) (UniProt Q6ZMG9).
T1 sequence: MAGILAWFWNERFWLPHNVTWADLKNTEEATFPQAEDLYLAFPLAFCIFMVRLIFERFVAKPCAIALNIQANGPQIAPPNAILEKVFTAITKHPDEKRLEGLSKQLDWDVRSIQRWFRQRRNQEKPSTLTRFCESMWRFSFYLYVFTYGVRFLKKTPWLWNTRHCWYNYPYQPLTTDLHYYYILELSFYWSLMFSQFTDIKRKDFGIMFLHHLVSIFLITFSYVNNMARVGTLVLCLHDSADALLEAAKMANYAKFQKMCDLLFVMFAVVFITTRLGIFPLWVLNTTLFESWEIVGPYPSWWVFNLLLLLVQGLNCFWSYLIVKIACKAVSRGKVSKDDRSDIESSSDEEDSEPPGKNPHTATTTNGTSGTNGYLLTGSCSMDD
Kind of test: co-IP; HEK293FT cells transfected with CERS6-mycDDK and Fas-HA or Fas-HA mutants; 1000 µg lysate on anti-FLAG-M2 affinity gel overnight at 4 °C, elution with 3× FLAG peptide; immunoblot. (In general: Immunoblotting shows a protein as a band on a membrane.)

Results are given in words; binding and its absence hold for the method and conditions named. Binding seen in cells or lysates may run through a third protein. Binding can be weak; no strength is given. Where a sequence is shown, tags or fusion partners need not be part of it.

With “FAS-HA with deletion of the death domain only (from UniProt P25445) (receptor)”, the binding entry is listed as “binds”.
